Assay results reported in patent publication US20250388702A1.
Residue numbers refer to the chain shown, from its start. No constants are given. Whether binding was seen depends on the method and setting. Some results given as binding are weak or reduced against the parent protein; the word gives no strength.

The chains behind the UniProt entries cited, without tags or fusion partners. Where a name states a change or a piece, a line headed by the entry shows the natural chain unless it says otherwise.
UniProt Q8N743: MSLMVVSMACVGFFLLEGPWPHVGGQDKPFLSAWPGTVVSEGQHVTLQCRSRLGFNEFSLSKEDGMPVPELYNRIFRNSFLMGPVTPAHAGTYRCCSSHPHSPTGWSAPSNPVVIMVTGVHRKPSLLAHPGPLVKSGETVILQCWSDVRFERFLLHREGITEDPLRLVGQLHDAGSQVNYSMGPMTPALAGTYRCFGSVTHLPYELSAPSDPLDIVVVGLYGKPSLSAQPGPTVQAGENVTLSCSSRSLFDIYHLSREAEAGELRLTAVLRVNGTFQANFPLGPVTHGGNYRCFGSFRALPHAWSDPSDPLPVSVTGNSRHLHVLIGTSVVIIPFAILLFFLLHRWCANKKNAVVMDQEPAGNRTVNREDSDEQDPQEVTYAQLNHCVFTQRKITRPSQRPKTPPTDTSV

What was measured:
Human KIR3DL3 (human) [1] = target: Human KIR3DL3 (human) (UniProt Q8N743); assay: HEK293 cell microarray, hybridoma supernatant
Human KIR3DL3 (human) [2] = target: Human KIR3DL3 (human) (UniProt Q8N743); assay: selectivity, HEK293 cell microarray
Human KIR3DL3 (human) [3] = target: Human KIR3DL3 (human) (UniProt Q8N743); assay: flow cytometry, blocking assay: mAb pre-incubated with KIR3DL3-transfected 300.19 cells, then HHLA2-mIgG2a added; blocked ligand HHLA2-mIgG2a
Human KIR3DL3 (human) [4] = target: Human KIR3DL3 (human) (UniProt Q8N743); assay: flow cytometry, KIR3DL3-transfected 300.19 cells
Human KIR3DL3 (human) [5] = target: Human KIR3DL3 (human) (UniProt Q8N743); assay: flow cytometry, KIR3DL3-transfected 300.19 cells, 30 min at 4 C, PE goat anti-mouse IgG (H+L) detection
Human KIR3DL3 (human) [6] = target: Human KIR3DL3 (human) (UniProt Q8N743); assay: flow cytometry, blocking assay: mAb pre-incubated with KIR3DL3-transfected 300.19 cells, then HHLA2-mIgG2a added; blocked ligand HHLA2-mIgG2a, detected with Alexa647 mAb 298.6F8
Human KIR3DL3 (human) [7] = target: Human KIR3DL3 (human) (UniProt Q8N743); assay: compared with 2F11
Human KIR3DL3 (human) [8] = target: Human KIR3DL3 (human) (UniProt Q8N743); assay: Western blot of KIR3DL3

Measured: binding

B1: KIR3DL3 mAb 574.2.1D12.1.6 (antibody, IgG2a, V domains shown)
VH: QVQLQQSGAELVRPGTSVKVSCKASGYAFNNYLIEWVKQRPGQGLEWIGVINPGSGGTNDNEKFRGKATLTADTSSSTAYMQLTSLTSDDSAVYFCARGNYYGTRDWYFDVWGAGTTVTVSS
VL: QIVLTQSPAIMSASLGARVTMTCTASSSVSSSSLHWYQQKPGSSPKLWIYSISSLASGVPARFSGSGSGTSYSLTISSLEAEDAATYYCHQYHRSPPTFGGGTKLEIK
binds: Human KIR3DL3 (human) [1]

B2: KIR3DL3 mAb 574.2.8C2.12.3.10 (antibody, IgG2a, V domains shown)
VH: B1 VH with Q1K, N30T, G66D, T74K, T84S, R105T
VL: B1 VL with A17E, S27A, S44P, L47F, I52T, S53T, S54N, A61T, S78N, L79M
binds: Human KIR3DL3 (human) [1]

B3: KIR3DL3 mAb 574.2.8F7.1.7.4 (antibody, IgG1, V domains shown)
VH: DVKLVESGGGLVKPGGSLKLSCAASGFTFSSYCMSWVRQTPEKRLEWVATISSGGNYIYYPDSVKGRFTISRDIAKNTLYLQMSSLKSEDTAMYYCTRGGYDERYFDYWGQGTILTVSS
VL: DIQMTQSPASLSASVGETVTITCRASENIYSYLAWYQQKQGKSPQLLVYNAKTLTEGMPSRFSGSGSGTQFSLRINSLQPEDFGSYYCQHHHGTPRTFGGGTKLEIK
binds: Human KIR3DL3 (human) [2] | Human KIR3DL3 (human) [1] | Human KIR3DL3 (human) [3] | Human KIR3DL3 (human) [4] | Human KIR3DL3 (human) [5] | Human KIR3DL3 (human) [6]

B4: KIR3DL3 mAb 574.2.1C7.D2.6.5 (antibody, IgG1, V domains shown)
VH: QVQLQQSGAELMKPGASVKISCKATGYTFSNYWIEWIKQRPGHGLEWIGEILPGSGSTNYNEKFKGKATFTAATSSNTAYMQLSSLTSEDSAVYYCARRVPDYYGSRYYFDYWGQGTTLTVSS
VL: NIVMTQSPKSMSMSVGERVTLSCKASENVGIYVSWYQQKPEQSPKLLIYGASNRYTGVPDRFTGSGSATDFTLTISSVQAEDLADYHCGQSYNYPFTFGSGTKLEIK
binds: Human KIR3DL3 (human) [2] | Human KIR3DL3 (human) [1] | Human KIR3DL3 (human) [5] | Human KIR3DL3 (human) [6]

B5: KIR3DL3 mAb 574.2.1G7.9.9 (antibody, IgG2b, V domains shown)
VH: ELKLEESGGGLVQPGGSMKLSCVASGFTFSNYWMNWVRQSPEKGLEWIAEIRLKSNNYATHYAESVKGRFTISRDDSKSSVYLQMNNLRAEDTGIFYCTPFYGSSFPYWGQGTLVTVSA
VL: DIQMTQTTSSLSASLGDRVTISCRASQDISNYLNWYQQKPDGTVKLLIYYTSILQLGVPPRFSGSGSGTDYSLTISNLEQEDIATYFCQQGNTLPFTFGAGTKVELK
binds: Human KIR3DL3 (human) [2] | Human KIR3DL3 (human) [1] | Human KIR3DL3 (human) [7] | Human KIR3DL3 (human) [3] | Human KIR3DL3 (human) [4] | Human KIR3DL3 (human) [5] | Human KIR3DL3 (human) [6]

B6: KIR3DL3 mAb 574.2.2F11.2.7.4 (antibody, IgG2b, V domains shown)
VH: DVQLVESGGGLVQPGGSRKLSCAASGFTFSYFGMHWVRRAPEKGLEWVAFISSDSTTIYYTDTVKGRFTISRDNPKNTLFLQMTSLRSEDTAIYYCARFYDGAMDYWGQGTSVTVST
VL: DIVMTQSQKFMSTSVGDRVSITCKASQSVRTAVAWYQQKPGQSPKVLIYLASNRHTGVPDRFTGSGSGTDFTLTISNVQSEDLADYFCLQHWNYPLTFGAGTKLELK
binds: Human KIR3DL3 (human) [2] | Human KIR3DL3 (human) [8] | Human KIR3DL3 (human) [1] | Human KIR3DL3 (human) [3] | Human KIR3DL3 (human) [4] | Human KIR3DL3 (human) [5] | Human KIR3DL3 (human) [6]

B7: KIR3DL3 mAb 574.2.2D8.6.9 (antibody, IgG2b, V domains shown)
VH: B6 VH
VL: B6 VL
binds: Human KIR3DL3 (human) [2] | Human KIR3DL3 (human) [1] | Human KIR3DL3 (human) [5] | Human KIR3DL3 (human) [6]

B8: KIR3DL3 mAb 574.2.2H1.11.6 (antibody, IgG2b, V domains shown)
VH: B6 VH
VL: B6 VL
binds: Human KIR3DL3 (human) [2] | Human KIR3DL3 (human) [1] | Human KIR3DL3 (human) [5] | Human KIR3DL3 (human) [6]
